Consider three substances from patent US20220306695A1 (priority 2019, published 2022).

Data set [1] can be described thus: general procedure: Fmoc solid-phase peptide synthesis; TentaGel S RAM; Rink amide-MBHA; HATU/DIPEA; manual: HATU/NMM, HBTU/NMM, DIC/Oxyma or DIC/Oxyma/DIPEA. The note with it: analytical HPLC and MS.
The nature of data set [2]: general procedure: Fmoc solid-phase peptide synthesis; Rink amide-MBHA; HATU/DIPEA; manual: HATU/NMM, HBTU/NMM, DIC/Oxyma or DIC/Oxyma/DIPEA. The note with it: whole synthesis, scale 0.5 mmol.

Positions of bridges follow the written chain, without caps; N, C: chain ends.

On to “Ac-ICIWQDWGAHRCT-NH2 (disulfide 2-12; SMILES CC[C@H](C)[C@H](NC(C)=O)C(=O)N[C@H]1CSSC[C@@H](C(=O)N[C@H](C(N)=O)[C@@H](C)O)NC(=O)[C@H](CCCNC(=N)N)NC(=O)[C@H](Cc2c[nH]cn2)NC(=O)[C@H](C)NC(=O)CNC(=O)[C@H](Cc2c[nH]c3ccccc23)NC(=O)[C@H](CC(=O)O)NC(=O)[C@H](CCC(N)=O)NC(=O)[C@H](Cc2c[nH]c3ccccc23)NC(=O)[C@H]([C@@H](C)CC)NC1=O)”, for which the “final HPLC purity” value in data set [1] (oxidative folding step) was 92%. In data set [1] (whole synthesis), the “crude purity (method not given)” value is given as “˜30%”.

With “Ac-SEFA(1)I[1-Me-Trp]QDWGEHRhC(1)[Sar]EGE[Peg3][Peg3]-K([17-carboxy-heptadecanoyl][γGlu]G[γGlu])-NH2”, in data set [1] (whole synthesis), the “crude purity (method not given)” value was 23% and the “final HPLC purity” value stood at 90.3%. The crude mass in data set [2] was 1.4 g.

On to “Ac-SEFC(1)1[1-Me-Trp]QDWGEHRC(1)[Sar]EGA-K([17-carboxy-heptadecanoyl][γGlu]G[Peg3][γGlu][Peg3])-NH2”, for which the “final HPLC purity” value in data set [1] (oxidative folding step) was 91%. The “crude purity (method not given)” value in data set [1] (whole synthesis) is “˜41-48%”.
